Measured values reported in PubChem BioAssay AID1487 (National Center for Advancing Translational Sciences (NCATS), 2009).
The list shows a part of the results. The main result of the screen is listed elsewhere. These columns were measured beside it and carry no call. Compounds called inactive in the main read-out are mostly missing here. The note in brackets gives the kind of curve behind each potency; many fits are weak.

Assay: qHTS Assay for Modulators of Lamin A Splicing
Conditions: HeLa LMNA splicing GFP/RFP minigene ratio, 48 h
Method in brief: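 Read-out is the ratio of GFP to DsRed2 object intensity, acquired by 488 nm laser-scanning cytometry on HeLa lamin A-EGFP minigene reporter cells. Compound incubation 48 hrs at 37 °C in Opti-MEM with 2% FBS; DMSO 0.5% final.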

[1] = measured here: GFP splicing reporter channel
[2] = measured here: RFP viability control channel

For `COc1cccc(CNC(=O)Cn2c(=O)n3nc(-c4cccc(F)c4)nc3c3ccccc32)c1`, the AC50 [1] was 10 µM [falling, partial curve, poor fit].

With `c1ccc(-c2nc(CSc3nnnn3-c3ccccc3)cs2)cc1` the AC50 [1] was 14.1 µM [rising, partial curve] and the AC50 [2] was 35.5 µM [rising, single point].

In the case of `COc1cccc(NC(=O)C(Sc2nnc(Nc3ccccc3C)s2)c2ccccc2)c1` (stereo unspecified), the AC50 [2] is reported as 31.6 µM [rising, single point].

In the case of `C/C(=N\NS(=O)(=O)c1cccc([N+](=O)[O-])c1)c1cccnc1`, the AC50 [2] is reported as 6.31 µM [rising, partial curve, poor fit].

In the case of `CCc1ccc2[nH]c(=O)c(CN(Cc3ccccc3)Cc3nnnn3Cc3ccco3)cc2c1`, the AC50 [1] is reported as 11.2 µM [rising, partial curve, poor fit] and the AC50 [2] is reported as 12.6 µM [rising, partial curve].

In the case of `Cc1ccc(S(=O)(=O)Nc2cc(C(F)(F)F)ccc2N2CCOCC2)cc1`, the AC50 [1] is reported as 35.5 µM [rising, single point] and the AC50 [2] is reported as 31.6 µM [rising, single point].

With `COc1ccccc1CNS(=O)(=O)c1ccc2c(c1)CC(=O)N2C` the AC50 [2] was 0.355 µM [falling, single point].

For `COc1ccc(N2C(=O)CCC(C(=O)c3ccccc3)=C2C)cc1`, the AC50 [2] was 35.5 µM [rising, single point].

For `O=C(COc1ccc(Cl)cc1)Nc1ccc(Cc2ccncc2)cc1`, the AC50 [1] was 11.2 µM [rising, partial curve] and the AC50 [2] was 20 µM [rising, single point].

In the case of `COc1ccc(C(=O)c2sc3nc(C)cc(-c4cccs4)c3c2N)cc1OC`, the AC50 [1] is reported as 25.1 µM [rising, single point] and the AC50 [2] is reported as 35.5 µM [rising, single point].

With `CCOC(=O)Cc1cnc(NC(=O)c2ccccc2)s1` the AC50 [1] was 11.2 µM [rising, partial curve, poor fit].

With `O=C(CSC1=NC(=O)C(c2ccccc2)C(=O)N1)Nc1ccccc1[N+](=O)[O-]` (stereo unspecified) the AC50 [1] was 0.794 µM [rising, full curve, poor fit] and the AC50 [2] was 1.41 µM [rising, partial curve].

For `CC[N+]1=CN(c2ccccc2)C(C)=CC1(C)C`, the AC50 [1] was 35.5 µM [rising, single point].

For `O=C(Nc1ccc(Br)cc1F)C1CCN(c2nc3ccccc3[nH]2)CC1`, the AC50 [1] was 11.2 µM [falling, partial curve, poor fit].

For `O=C(Nc1ccccc1)Nc1ccc2snnc2c1`, the AC50 [2] was 35.5 µM [rising, single point].
